Experimental data from patent US7208450B2, “Pesticidal (dihalopropenyl) phenylalkyl substituted benzoxazole and benzothiazole derivatives” (Bayer CropScience AG, priority 2003, dated 2007).
Some of these results come from one statement about several compounds together.

Test system: tobacco budworm
Test: foliar treated test against tobacco budworm on chick pea plants
Assay type: in vivo, Heliothis virescens
Details: summary of Table 4
Method: Certain compounds of formula I were tested against tobacco budworm on plant foliage. The foliar treated test against tobacco budworm were conducted in the following manner:
Nine-to-ten day-old chick pea plants (Cicer arietinum) were sprayed at 15 psi to runoff on both upper and lower leaf surfaces with solutions of test compound to provide application rates as high as 1000 ppm of test chemical. The solvent used to prepare the solutions of test compound was 10% acetone or methanol (v/v) and 0.1% of the surfactant octylphenoxypolyethoxyethanol in distilled water. Four replicates, each containing one chick pea plant, for each rate of application of test compound were sprayed. The treated plants were transferred to a hood where they were kept until the spray had dried.
The four chick pea plants for each replicate treated with test compound as described above were removed from their pots by cutting the stems just above the soil line. The excised leaves and stems from the four plants in each replicate were placed in individual 237 mL (8-ounce) paper cups, which contained a moistened filter paper. Five second-instar tobacco budworm (7 days old) were counted into each cup, taking care not to cause injury. […] At the end of the 96 hour exposure period the cups were opened, and the numbers of dead, moribund, and live insects were counted. […]

## CC1(C)Oc2ccc(OCCCCOc3c(Cl)cc(OCC=C(Cl)Cl)cc3Cl)cc2O1 [Compound 4]
  activity in controlling tobacco budworm (in words): active
